{"source": "patent US12448442B2", "about": "“Treatment of T cell lymphoma” (INNATE PHARMA, priority 2019, dated 2025)", "key": {"Hut78 cells": {"system": "Hut78 cells", "experiment": "KIR3DL2 surface expression by flow cytometry on Hut78 cells", "assay_type": "cell-based", "conditions": "Hut78, 24 hour incubation, ascending doses, median fluorescence intensity", "method": "(§1) RAJI-KIR3DL2 (48 hour incubation) (FIG. 2, left hand panel) or Hut 78 ([…]; 24 hour incubation (FIG. 2, right hand panel) were incubated with ascending doses of gemcitabine and oxaliplatin. Median intensity of fluorescence of KIR3DL2 on tumor cell line surface was analyzed by flow cytometry.\n(§2) Briefly, Hut78 cells (Sezary Syndrome cell line) or RAJI-KIR3DL2 cells (RAJI B-NHL cell line transfected with human KIR3DL2 were incubated with ascending doses of gemcitabine and oxaliplatin. Median intensity of fluorescence of KIR3DL2 on tumor cell line surface was analyzed by flow cytometry."}, "RAJI-KIR3DL2 cells": {"system": "RAJI-KIR3DL2 cells", "experiment": "KIR3DL2 surface expression by flow cytometry on RAJI-KIR3DL2 cells", "assay_type": "cell-based", "conditions": "RAJI-KIR3DL2, 48 hour incubation, ascending doses, median fluorescence intensity", "method": "as §1, §2"}}, "note": "Some entries share one result that the patent states for a list of compounds."}
{"compound": "Nc1ccn([C@@H]2O[C@H](CO)[C@@H](O)C2(F)F)c(=O)n1", "note": "[gemcitabine]", "values": [{"measurement": "enhancement of KIR3DL2 surface expression, plateau as compared to baseline", "setting": "Hut78 cells", "value": "2 to 3", "unit": "fold"}, {"measurement": "enhancement of KIR3DL2 surface expression, plateau as compared to baseline", "setting": "RAJI-KIR3DL2 cells", "value": "2 to 3", "unit": "fold"}]}
